The source of these data is patent US20210253715A1 (NATIONAL RESEARCH COUNCIL OF CANADA, published 2021).

Protein sequences, listed by entry. Tags and fused reporters are not part of them. Residues count along the entry.
UniProt P08069, residues 31-932: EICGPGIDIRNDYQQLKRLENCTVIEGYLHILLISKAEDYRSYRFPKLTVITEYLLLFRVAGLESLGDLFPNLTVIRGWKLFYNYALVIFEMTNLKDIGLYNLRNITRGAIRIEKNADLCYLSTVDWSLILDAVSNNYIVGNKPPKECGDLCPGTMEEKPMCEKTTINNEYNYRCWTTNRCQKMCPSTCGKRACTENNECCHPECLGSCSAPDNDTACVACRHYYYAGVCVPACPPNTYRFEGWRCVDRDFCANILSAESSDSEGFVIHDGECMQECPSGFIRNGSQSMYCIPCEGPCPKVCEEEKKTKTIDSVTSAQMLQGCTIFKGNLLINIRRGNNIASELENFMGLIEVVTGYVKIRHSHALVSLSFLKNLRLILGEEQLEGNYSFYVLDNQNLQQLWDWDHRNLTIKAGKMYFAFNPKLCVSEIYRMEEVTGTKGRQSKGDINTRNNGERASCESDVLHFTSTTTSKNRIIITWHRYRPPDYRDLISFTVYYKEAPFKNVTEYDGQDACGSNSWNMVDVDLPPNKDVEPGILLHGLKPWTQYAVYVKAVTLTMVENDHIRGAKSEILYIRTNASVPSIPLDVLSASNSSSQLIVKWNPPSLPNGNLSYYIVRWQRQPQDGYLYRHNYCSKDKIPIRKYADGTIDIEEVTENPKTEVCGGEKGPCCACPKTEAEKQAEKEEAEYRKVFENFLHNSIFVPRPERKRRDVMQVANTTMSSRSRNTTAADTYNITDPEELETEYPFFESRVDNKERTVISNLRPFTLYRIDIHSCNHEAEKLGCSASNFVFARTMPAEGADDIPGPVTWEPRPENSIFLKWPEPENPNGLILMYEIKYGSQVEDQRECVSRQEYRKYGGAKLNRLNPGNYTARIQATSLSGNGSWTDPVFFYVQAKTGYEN

These are yes or no findings as the source states them, for the method shown. Some results given as binding are weak or reduced against the parent protein; the word gives no strength.

Assay [1] deals with T1, human IGF1R (human, UniProt P08069 31-932, limits assumed).
T1 construct: also called hIGF1R; h-IGF1R
Kind of assay: SPR, hIGF1R immobilised on CM4 chip.

For assay [2], the target named is T1, human IGF1R. Nature of the assay: SPR. On the technique in general: Surface plasmon resonance follows binding to a sensor surface in real time, without labels.

B1: IGF1R3H5-IDS (capped) (other)
chain: EVQLVESGGGLVQPGGSLRLSCAASEYPSNFYAMSWFRQAPGKEREFVSGVSRDGLTTLYADSVKGRFTISRDNSKNTLYLQMNSLRAEDTAVYYCAIVITGVWNKVDVNSRSYHYWGQGTLVTVSSGGGGSGGGGSGGGGSGGGGSGGGGSSETQANSTTDALNVLLIIVDDLRPSLGCYGDKLVRSPNIDQLASHSLLFQNAFAQQAVCAPSRVSFLTGRRPDTTRLYDFNSYWRVHAGNFSTIPQYFKENGYVTMSVGKVFHPGISSNHTDDSPYSWSFPPYHPSSEKYENTKTCRGPDGELHANLLCPVDVLDVPEGTLPDKQSTEQAIQLLEKMKTSASPFFLAVGYHKPHIPFRYPKEFQKLYPLENITLAPDPEVPDGLPPVAYNPWMDIRQREDVQALNISVPYGPIPVDFQRKIRQSYFASVSYLDTQVGRLLSALDDLQLANSTIIAFTSDHGWALGEHGEWAKYSNFDVATHVPLIFYVPGRTASLPEAGEKLFPYLDPFDSASQLMEPGRQSMDLVELVSLFPTLAGLAGLQVPPRCPVPSFHVELCREGKNLLKHFRFRDLEEDPYLPGNPRELIAYSQYPRPSDIPQWNSDKPSLKDIKIMGYSIRTIDYRYTVWVGFNPDEFLANFSDIHAGELYFVDSDPLQDHNMYNDSQGGDLFQLLMPHHHHHHHHWSHPQFEK
modifications: phosphorylated N-glycans; Man-6-P still capped (no uncapping)
notes: also called capped IGF1R3H5-IDS
As to B1, the binding entry in assay [1] and in assay [2] was “binds” throughout.
